Reference: PubChem BioAssay
Some of the results follow. These are further read-outs of the screen, such as a control signal, another cell line or another target. No call is given for them. The list favours compounds with an active or inconclusive main result.

Assay: Her2 expression decrease, cell viability multiplex – SKBR3 breast tumor cells, AlphaScreen, ATP viability, primary screen (AID 461);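 further: percent of carrier control wells set as 100% viability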
Conditions: SKBR3 Her2 protein level, 18-24 h, measured here: SKBR3 viability, ATP luminescence, at 10 µM
In the case of `CC1CCN(c2c(NCc3ccc(C(=O)N4c5ccccc5CC4C)cc3)c(=O)c2=O)CC1` (configuration not stated), the viability was 95%.
With `Cc1cc(NC(=O)c2ccccc2)ncc1NC(=O)c1ccco1` the viability was 94%.
Work on `CCOC(=O)N1CCC(n2c(=S)[nH]c3cc(OC)c(OC)cc3c2=O)CC1` yielded a viability of 114%.
With `CCOC(=O)c1sc2cccc(F)c2c1N` the viability was 105%.
In the case of `CCOc1ccc(-c2nc(C#N)c(NCc3ccc4c(c3)OCO4)o2)cc1`, the viability was 68%.
`COc1cc(C(=O)N2CCN(c3cc(Cl)ccc3Cl)CC2)cc(OC)c1OC` showed a viability of 77.5%.
Work on `COC(=O)c1nc2n(n1)C(c1ccc(OC)c(OC)c1)C(C(=O)OC1CCCCC1)=C(C)N2` (configuration not stated) yielded a viability of 67%.
`CCOC(=O)C1CCN(C(=O)COc2ccc(S(=O)(=O)NC(C)C)cc2Cl)CC1` showed a viability of 99.5%.
`OC(CCN1CCCC1)(c1ccccc1)C1CCCCC1` (configuration not stated) showed a viability of 93%.
In the case of `Cc1cc(=O)n(CCO)c(O)c1C#N`, the viability was 81.5%.
Work on `COC(=O)C1=C(C)NC(C)=C(C(=O)OC)C1C(=O)OC1CCCCC1=O` (configuration not stated) yielded a viability of 89%.
`N#Cc1c(N2CCCC2)nc(N)c2c(N)nc(N3CCCC3)cc12` showed a viability of 82%.
Work on `COC(=O)c1cc(=O)n(Cc2ccc3c(c2)OCO3)c(=Nc2ccccc2)s1` yielded a viability of 90%.
For `Cc1cc(C)nc(SC2=CS(=O)(=O)c3ccccc32)n1`, the viability was 102%.
With `CCOC(=O)C1=C(CS(=O)(=O)c2ccc(F)c(C)c2)NC(=O)NC1c1ccc(O)c(O)c1` (configuration not stated) the viability was 112%.
For `O=S1(=O)Nc2c(ccc3cccnc23)-c2ccccc21`, the viability was 122%.
In the case of `O=C(CN1C(=O)c2cccc3cccc1c23)Nc1ccccc1C(=O)NCc1ccco1`, the viability was 89%.
Work on `Cc1cccn2c(=O)c3cc(C#N)c(=NC(=O)c4ccncc4)n(Cc4ccco4)c3nc12` yielded a viability of 110%.
Work on `CCCCOc1ccc(S(=O)(=O)n2c(C)nc3ccccc32)cc1` yielded a viability of 138%.
For `CCOC(=O)c1[nH]c2ccc(F)cc2c1NC(=O)C(C)N1CCc2cc(OC)c(OC)cc2C1` (configuration not stated), the viability was 99%.
For `COc1ccc(CCn2c(=N)c(C(=O)NCc3ccco3)cc3c(=O)n4ccccc4nc32)cc1`, the viability was 73%.
`O=C(O)C1C2C=CC(C3CC23)C1C(=O)NCCc1ccccc1` (configuration not stated) gave a viability of 101%.
Compound `Cc1oc2cc3c(C(=O)OCCN(C)C)c(C)oc3cc2c1C(=O)OCCN(C)C` has a viability of 92.5%.
`Clc1ccc2c(c1)[C@H]1OCC[C@H]1[C@@H](c1ccco1)N2` gave a viability of 104%.
`CCOC(=O)Cc1cc(=O)n2[nH]c(C)c(-c3ccc(OC)cc3)c2n1` showed a viability of 103%.
Compound `Cc1cc(-n2c(C)cc(C(=O)CSc3nnnn3-c3ccc(Cl)cc3)c2C)no1` has a viability of 81.5%.
`O=C(O)c1ccc2c3c(ncnc13)-c1ccccc1C2=O` showed a viability of 60.5%.
With `CC(C)N=c1cc2n(-c3ccc(Cl)cc3)c3ccccc3nc-2cc1Nc1ccc(Cl)cc1` the viability was 102%.
In the case of `O=c1[nH]c2ccccc2n1CCCN1CCN(C(c2ccccc2)c2ccccc2)CC1`, the viability was 62%.
`Cn1c(=O)c2c(nc(CN3CCc4ccccc4C3)n2Cc2cccc(Cl)c2)n(C)c1=O` showed a viability of 95%.
For `COc1cc(NC(=O)c2ccco2)c(OC)cc1NC(=O)CCC(=O)Nc1cc(C)cc(C)c1`, the viability was 106%.
Compound `COc1cccc(-c2cc(C(=O)Nc3c(C)nn(Cc4ccccc4)c3C)no2)c1` has a viability of 158%.
Work on `CCOC(=O)C1=C(C)Nc2nc(SCC(=O)OC)nn2C1c1cc(F)cc(F)c1` (configuration not stated) yielded a viability of 91.5%.
`OCCN1CCN(CCCN2c3ccccc3Sc3ccc(C(F)(F)F)cc32)CC1` showed a viability of 3%.
In the case of `Cn1cc(C(=O)NC2CCCCCCC2)c(=O)c2cc(S(=O)(=O)N3CCCC3)ccc21`, the viability was 76.5%.
In the case of `CCOc1ccc(-c2nc(N)ncc2-c2ccccc2)c(O)c1`, the viability was 136%.
`C1CCC(C(CC2CCCCN2)C2CCCCC2)CC1` (configuration not stated) gave a viability of 2%.
